Laboratory results as given in article doi:10.1101/384354.
Results are given in words; binding and its absence hold for the method and conditions named. In cells and extracts the contact can be indirect. Some entries that bind do so weakly or less than the wild type. For some assays here: Where a sequence is shown, tags or fusion partners need not be part of it.

Amino acid sequences for entries named in this document (tags omitted).
UniProt P11440: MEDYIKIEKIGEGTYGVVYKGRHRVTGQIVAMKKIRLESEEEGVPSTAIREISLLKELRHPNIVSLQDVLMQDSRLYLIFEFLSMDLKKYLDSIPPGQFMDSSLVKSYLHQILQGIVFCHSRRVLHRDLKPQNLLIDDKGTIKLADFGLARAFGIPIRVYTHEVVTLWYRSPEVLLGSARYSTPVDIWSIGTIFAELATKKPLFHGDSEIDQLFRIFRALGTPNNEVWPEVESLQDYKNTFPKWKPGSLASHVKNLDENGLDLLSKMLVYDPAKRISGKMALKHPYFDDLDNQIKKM
UniProt Q9CWH6: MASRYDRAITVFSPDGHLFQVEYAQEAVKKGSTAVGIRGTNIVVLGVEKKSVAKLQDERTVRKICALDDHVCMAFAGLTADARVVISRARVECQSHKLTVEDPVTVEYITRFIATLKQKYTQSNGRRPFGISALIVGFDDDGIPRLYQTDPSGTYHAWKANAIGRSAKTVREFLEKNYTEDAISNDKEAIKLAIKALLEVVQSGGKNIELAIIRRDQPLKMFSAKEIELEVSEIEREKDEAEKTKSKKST
UniProt Q3TUU5: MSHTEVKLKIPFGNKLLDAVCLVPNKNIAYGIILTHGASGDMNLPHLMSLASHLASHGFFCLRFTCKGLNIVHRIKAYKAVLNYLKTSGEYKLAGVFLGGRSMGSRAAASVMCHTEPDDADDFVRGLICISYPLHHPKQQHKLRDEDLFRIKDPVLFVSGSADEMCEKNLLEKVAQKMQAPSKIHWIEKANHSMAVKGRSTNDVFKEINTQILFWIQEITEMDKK
UniProt Q9JMB7: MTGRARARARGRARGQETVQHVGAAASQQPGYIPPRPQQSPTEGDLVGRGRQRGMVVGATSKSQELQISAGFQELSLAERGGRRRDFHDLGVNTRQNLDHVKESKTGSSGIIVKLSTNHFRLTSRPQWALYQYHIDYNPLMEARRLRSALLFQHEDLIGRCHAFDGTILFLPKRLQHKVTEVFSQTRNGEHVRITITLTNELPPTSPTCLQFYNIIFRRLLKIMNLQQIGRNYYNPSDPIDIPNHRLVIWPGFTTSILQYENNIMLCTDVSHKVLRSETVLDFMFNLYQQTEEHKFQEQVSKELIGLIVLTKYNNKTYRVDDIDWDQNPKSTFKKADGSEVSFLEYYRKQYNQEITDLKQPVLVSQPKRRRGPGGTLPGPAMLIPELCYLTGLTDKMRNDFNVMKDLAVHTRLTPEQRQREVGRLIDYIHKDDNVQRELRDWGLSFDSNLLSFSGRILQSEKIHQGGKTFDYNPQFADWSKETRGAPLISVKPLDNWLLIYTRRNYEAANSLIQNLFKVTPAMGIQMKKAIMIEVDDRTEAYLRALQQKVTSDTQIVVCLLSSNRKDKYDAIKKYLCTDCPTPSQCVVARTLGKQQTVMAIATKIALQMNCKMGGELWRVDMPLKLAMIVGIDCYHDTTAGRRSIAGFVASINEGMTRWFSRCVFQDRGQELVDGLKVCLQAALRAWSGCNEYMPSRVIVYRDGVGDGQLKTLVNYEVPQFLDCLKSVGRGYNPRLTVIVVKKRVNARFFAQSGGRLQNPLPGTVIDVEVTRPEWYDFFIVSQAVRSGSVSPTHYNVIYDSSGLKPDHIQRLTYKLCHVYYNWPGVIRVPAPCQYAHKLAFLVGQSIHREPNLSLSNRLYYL

B1: GFP-SYCP1 (protein, UniProt Q62209 1-993)
chain: MEKQKPFTLFVPPRLSSSQVSAVKPQTAGGDSNYFKTANKCTEGDFGVPFTMSSRENIDKDPAFQKLSILPMLEQVANSGSCHYQEGVNDSDFENSEPMSRLYSKLYKEAEKIKKWKVSIESELKQKENKLQENRKIIEAQRKAIQELQFENEKVSLKLEEEIQENKDLIKENNATIHWCNLLKETCARSAEKTNKYEYEREETRQVYVDLNSNIEKMILAFEELRVQAENARLEMHFKLKEDHEKIQHLEEEYQKEVNNKENQVSELLIQSAEKENKMKDLTFLLEESRDKANQLEEKTKLQDENLKELSEKKDHLTSELEDIKMSMQRSMSTQKALEEDLQIATKTISQLTEVKEAQMEELNKAKTTHSFVVTELKATTCTLEELLRTEQQRLEKNEDQLKLITVELQKKSNELEEMTKFKNNKEVELEELKNILAEDQKLLDEKKQVEKLAEELQEKEQELTFLLETREKEVHDLQEQVTVTKTSEQHYLKQVEEMKTELEKEKLKNTELTASCDMLLLENKKFVQEASDMALELKKHQEDIINCKKQEERLLKQIENLEEKEMHLRDELESVRKEFIQQGDEVKCKLDKSEENARSIECEVLKKEKQMKILESKCNNLKKQVENKSKNIEELHQENKTLKKKSSAEIKQLNAYEIKVSKLELELESTKQRFEEMTNNYQKEIENKKISEGKLLGEVEKAKATVDEAVKLQKEIDLRCQHKIAEMVALMEKHKHQYDKIVEERDSELGLYKNREQEQSSAKIALETELSNIRNELVSLKKQLEIEKEEKEKLKMAKENTAILKDKKDKKIQASLLESPEATSWKFDSKTTPSQNISRLSSSMDSGKSKDNRDNLRASAKSILPTTVTKEYTVKTPTKKSIYQRENKYIPTGGSNKKRKTAFEFDVNSDSSETADLLSLVSEEDVSNRLYDNNPPDSHLLVKTPKQTPLSLSTPASFMKFGSLKKMREDRWTTIAKIDRKRRLKEAEKLFS
B2: Flag-SIX6OS1 (protein, UniProt Q9CTN5 1-574)
chain: MNDNLFVSLDRLLLEFVFQYEQDISIKEDTIQRINKCLESIKENKANVSKLREAINKVDEDIAFHYKHSKEIKDSCSNWKPTCDVFHKHEDYIKDQLTAYQETNEKDKKMYHDYICQYEDVLKQYQLKYSETRFSCKYYEKKKEHEEIKNRVLACTEQLQLNETILMKFLVPAPFPSLTKWTLYVVNLRYRTQDILKRANNFTKRSFELEKEADDMEIEINSLNKMARLFESKTFSEALDEKNKNTEKRKEFEERIFEKDEQVSNRSSQNSQLLLPCESQKFVRNMNSSEARVTDKKEESSANQSKFVRSDVRQKENNPQIFNDSGMDSNSKSSHIPAVKSSQGFMQFRLNQPNYNQRIEKEHIDAECGDKETVRQVRESKCSTQALYIEHFGKSIENNSVEEERDENFPQTPETPSFLRTPEALKTPESMEKMQFPKSPFFEITKNATSEGHKQKDSPGFSFLMSYTSRSPGLNLFDSSVSDSEISSDQFNEHYSAVNLNPSSSQQGIGNLFGKSEGEDAFTFSFSSDSSHTFGAGKDDFSFPFSFEQDPSTMTSSSSKDFSSSQNKTQFMFF
B3: GFP-SYCE3 (protein, UniProt B5KM66 1-88)
chain: MADSDPGERSYDNMLKMLSDLNKDLEKLLEEMEKISVQATWMAYDMVVMRTNPTLAESMRRLEDAFLNCKEEMEKNWQELLTETKRKQ
B4: TRIP13-GFP (protein, UniProt Q3UA06 1-432)
chain: MDEAVGDLKQALPCVAESPAVHVEVLQRSGSTAKKEDIKSSVYRLLNRHNIVFGDYVWTEFDDPFLSRNVQSVSIVDTELKAKDPQPIDLSACTIALHIFQLNEEGPSSENLDEETENIIAASHWVLPAAEFHGLWDSLVYDVEVKSHLLDYVMTTVLFSDKNVDSNLITWNRVVLLHGPPGTGKTSLCKALAQKLTIRLSSRYRYGQLIEINSHSLFSKWFSESGKLVTKMFQKIQDLIDDKEALVFVLIDEVESLTAARNACRAGAEPSDAIRVVNAVLTQIDQIKRHSNVVILTTSNITEKIDVAFVDRADIKQYIGPPSAAAIFKIYLSCLEELMKCQIIYPRQQLLTLRELEMIGFIENNVSKLSLLLSEISRKSEGLSGRVLRKLPFLAHALYIQAPSVTIEGFLQALSLAVDKQFEEKKKLSAYV
B5: GFP-SYCE2 (protein, UniProt Q505B8 1-171)
chain: MERHGVAAPPVELKDQEPPAIVESGEHRQSENHEETPGSVAPSASCQLPGPFSSLDSSIETLKKKAQELIENINESRQKDHALMTNFRDSLKMKVSDLTEKLEERMYQVYSHHSKIIQERLQEFTQKMAKINHLEMELKQVCQTVETVYKDLCVQSEVPTCEEQNYKDGEC
B6: GFP-TEX12 (protein, UniProt Q9CR81 1-123)
chain: MMANHLVKPDSRNCKRARELEPQVSDSPQVSSLGKSESSLSEASGLFYKEEALEKDLSDMSKEINLMLSTYAKILSERAAVDASYIDEIDGLFKEANIIENFLVQKREFLKQRFTVITNTLHK
B7: GFP-SYCE1 (protein, UniProt Q9D495 1-329)
chain: MATRPQPLGMEPEGSADLLHGPEGARGQYGSTQKIEDLMDMVKKLQKVGSLEPRIEVLINRINEVQQAKKKASEELGEAQTVWDNLQKELDLLREEKVRLKDILNRKEETLRIMQLHCQEKESEAQRKHSMLQECKERISFLNSQIDKEKAKLRKLRLDFEEHLETLMSQHKDTLEFHKPEHLTKEMCVLDSSKEQLLKEEKLMKVKLEDVRQRLCALGGPEGSSSLIEGLFLRSHEAAAAMQMFKDENKKAEEFLEAAAQQHEQLQQRCHQLQQKRQRLKEELEKHGVQILAHSTQNEEDSSWRMASPKPVEVHEETAQDQERPSSRT

What follows are molecules tested against GFP-CDK1 (mouse) (UniProt P11440) (assay: co-IP).
Flag-PSMA8 (from UniProt Q9CWH6 1-250) was tested, and the binding was “binds”.

Each molecule was assayed against Flag-PSMA8 (mouse) (UniProt Q9CWH6) (assay: co-IP).
For GFP-TEX30 (from UniProt Q3TUU5 1-225), the binding was “no binding”.
With GFP-PIWIL1 (from UniProt Q9JMB7 1-862) the binding was “no binding”.
“GFP-CDK1 (from UniProt P11440 1-297) (enzyme)” was tested, and the binding was “binds”.

Biological target: Flag-PSMA8 (mouse) (UniProt Q9CWH6)
Assay: co-IP
Remark: another data set of the same source
In the case of B1, the binding is reported as “binds”.
With B2 the binding was “binds”.
In the case of B3, the binding is reported as “binds”.
In the case of B4, the binding is reported as “binds”.
For B5, the binding was “no binding”.
For B6, the binding was “no binding”.
For B7, the binding was “no binding”.
